Laboratory results published in patent US6294325.
The exact form of at least one protein or probe is not confirmed. No signal at the amounts used counts as a negative.

Tested on: MutS + MutL
Assay: activity assay
Conditions: 3' phosphate on the 28-mer; allele-specific PCR; 1 uM MutS + 0.2 uM MutL; matched pUC19GC allele amplified (100% AvaII cleavage at equal template); purified recombinant protein

GGGGACCCTC (double strand) [TaqMan 28-mer/pUC19GC perfect homoduplex]
activity on this sequence: not active
